Among the data in patent US20100310509A1 are binding values, retold here.

Results are given in words; binding and its absence hold for the method and conditions named. Binding can be weak; no strength is given.

Assay [1] has as its target OSM-WT ('AGA' modified human Oncostatin M, referred to as wild-type OSM) (human). Briefly: SPR (SensiQ), OSM-WT immobilised, soluble LIFR injected, 1:1 fit overlaid.
Assay [2] shares this target. Briefly: ELISA, OSM-WT coated, soluble LIFR titrated, anti-LIFR detection, O.D at 450 nm.

B1: soluble human LIFR (leukemia inhibitory factor receptor) (receptor, UniProt P42702 45-833, looked up)
chain: QKKGAPHDLKCVTNNLQVWNCSWKAPSGTGRGTDYEVCIENRSRSCYQLEKTSIKIPALSHGDYEITINSLHDFGSSTSKFTLNEQNVSLIPDTPEILNLSADFSTSTLYLKWNDRGSVFPHRSNVIWEIKVLRKESMELVKLVTHNTTLNGKDTLHHWSWASDMPLECAIHFVEIRCYIDNLHFSGLEEWSDWSPVKNISWIPDSQTKVFPQDKVILVGSDITFCCVSQEKVLSALIGHTNCPLIHLDGENVAIKIRNISVSASSGTNVVFTTEDNIFGTVIFAGYPPDTPQQLNCETHDLKEIICSWNPGRVTALVGPRATSYTLVESFSGKYVRLKRAEAPTNESYQLLFQMLPNQEIYNFTLNAHNPLGRSQSTILVNITEKVYPHTPTSFKVKDINSTAVKLSWHLPGNFAKINFLCEIEIKKSNSVQEQRNVTIKGVENSSYLVALDKLNPYTLYTFRIRCSTETFWKWSKWSNKKQHLTTEASPSKGPDTWREWSSDGKNLIIYWKPLPINEANGKILSYNVSCSSDEETQSLSEIPDPQHKAEIRLDKNDYIISVVAKNSVGSSPPSKIASMEIPNDDLKIEQVVGMGKGILLTWHYDPNMTCDYVIKWCNSSRSEPCLMDWRKVPSNSTETVIESDEFRPGIRYNFFLYGCRNQGYQLLRSMIGYIEELAPIVAPNFTVEDTSADSILVKWEDIPVEELRGFLRGYLFYFGKGERDTSKMRVLESGRSDIKVKNITDISQKTLRIADLQGKTSYHLVLRAYTDGGVGPEKSMYVVTKENS
For B1, the binding entry in assay [1] and in assay [2] was “binds” throughout.
